Values quoted from earlier work in patent US7666391B2, “Breast homing peptides and methods of identifying same using aminopeptidase P” (Burnham Institute for Medical Research, priority 2001, dated 2010).
At least one compound was matched to its structure with a doubt left. Square brackets hold non-standard residues; d marks the D form. Peptide text beside a SMILES is read from it. * marks the point of attachment. X1 = NC(Cc1ccccc1)C(O)C(=O)*; βAla = NCCC(=O)O

Legend:
[1] = target: bovine membrane-bound aminopeptidase P; settings: 0.5 mM arg = Pro-Pro in 0.1 M Hepes, pH 8.0; triplicate; cited from earlier work
[2] = target: monkey membrane-bound aminopeptidase P; settings: 0.5 mM arg = Pro-Pro in 0.1 M Hepes, pH 8.0; triplicate; cited from earlier work

| SMILES | IC50 [1] [µM] | IC50 [2] [µM] |
| --- | --- | --- |
| CC(NC(=O)C1CCCN1C(=O)C1CCCN1C(=O)C(O)C(N)Cc1ccccc1)C(=O)NCCC(=O)NC(CS)C(N)=O (stereo not drawn) [Compound 4] (X1-PPA[βAla]C-NH2; configuration not given here) | 4 |  |
| CC(NC(=O)C1CCCN1C(=O)C1CCCC1S)C(N)=O (stereo not drawn) [Compound 10] | 10 | 13 |
